According to paper PMC8933699:
No constants are given. Whether binding was seen depends on the method and setting. In cells and extracts the contact can be indirect. Some binding calls cover weakened binding; strength is not graded here.

The chains behind the UniProt entries cited, without tags or fusion partners. Where a name states a change or a piece, a line headed by the entry shows the natural chain unless it says otherwise. A line that says so, or that is headed by a name, gives the form on record, which may keep a tag or linker.
UniProt Q8TB45: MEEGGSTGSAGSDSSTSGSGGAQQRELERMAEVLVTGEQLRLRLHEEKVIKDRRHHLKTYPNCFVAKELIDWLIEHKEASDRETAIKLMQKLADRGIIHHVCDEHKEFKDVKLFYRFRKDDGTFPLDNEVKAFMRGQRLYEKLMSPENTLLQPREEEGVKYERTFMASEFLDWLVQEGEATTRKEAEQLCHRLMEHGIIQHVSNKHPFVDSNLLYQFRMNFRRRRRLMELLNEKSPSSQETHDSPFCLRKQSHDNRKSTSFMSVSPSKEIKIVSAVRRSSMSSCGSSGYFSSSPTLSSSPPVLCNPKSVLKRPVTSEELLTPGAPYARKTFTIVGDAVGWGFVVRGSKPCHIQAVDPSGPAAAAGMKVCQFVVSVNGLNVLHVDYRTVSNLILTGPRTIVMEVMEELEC
FLAG-tagged DEPTOR serine-to-aspartate (S-Asp) phosphomimetic mutant at residue 235 (Q8TB45, form named): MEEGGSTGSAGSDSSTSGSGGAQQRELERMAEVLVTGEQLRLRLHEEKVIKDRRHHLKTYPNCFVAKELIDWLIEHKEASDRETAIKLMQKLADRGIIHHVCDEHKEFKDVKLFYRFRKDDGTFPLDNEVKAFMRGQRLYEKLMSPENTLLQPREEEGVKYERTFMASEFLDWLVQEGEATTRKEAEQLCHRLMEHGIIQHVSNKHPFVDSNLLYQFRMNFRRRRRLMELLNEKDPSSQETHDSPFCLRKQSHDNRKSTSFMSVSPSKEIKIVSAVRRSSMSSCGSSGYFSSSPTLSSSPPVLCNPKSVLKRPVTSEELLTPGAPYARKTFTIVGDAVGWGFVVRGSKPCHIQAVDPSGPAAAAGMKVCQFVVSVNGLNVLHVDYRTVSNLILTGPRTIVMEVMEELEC
UniProt Q93009: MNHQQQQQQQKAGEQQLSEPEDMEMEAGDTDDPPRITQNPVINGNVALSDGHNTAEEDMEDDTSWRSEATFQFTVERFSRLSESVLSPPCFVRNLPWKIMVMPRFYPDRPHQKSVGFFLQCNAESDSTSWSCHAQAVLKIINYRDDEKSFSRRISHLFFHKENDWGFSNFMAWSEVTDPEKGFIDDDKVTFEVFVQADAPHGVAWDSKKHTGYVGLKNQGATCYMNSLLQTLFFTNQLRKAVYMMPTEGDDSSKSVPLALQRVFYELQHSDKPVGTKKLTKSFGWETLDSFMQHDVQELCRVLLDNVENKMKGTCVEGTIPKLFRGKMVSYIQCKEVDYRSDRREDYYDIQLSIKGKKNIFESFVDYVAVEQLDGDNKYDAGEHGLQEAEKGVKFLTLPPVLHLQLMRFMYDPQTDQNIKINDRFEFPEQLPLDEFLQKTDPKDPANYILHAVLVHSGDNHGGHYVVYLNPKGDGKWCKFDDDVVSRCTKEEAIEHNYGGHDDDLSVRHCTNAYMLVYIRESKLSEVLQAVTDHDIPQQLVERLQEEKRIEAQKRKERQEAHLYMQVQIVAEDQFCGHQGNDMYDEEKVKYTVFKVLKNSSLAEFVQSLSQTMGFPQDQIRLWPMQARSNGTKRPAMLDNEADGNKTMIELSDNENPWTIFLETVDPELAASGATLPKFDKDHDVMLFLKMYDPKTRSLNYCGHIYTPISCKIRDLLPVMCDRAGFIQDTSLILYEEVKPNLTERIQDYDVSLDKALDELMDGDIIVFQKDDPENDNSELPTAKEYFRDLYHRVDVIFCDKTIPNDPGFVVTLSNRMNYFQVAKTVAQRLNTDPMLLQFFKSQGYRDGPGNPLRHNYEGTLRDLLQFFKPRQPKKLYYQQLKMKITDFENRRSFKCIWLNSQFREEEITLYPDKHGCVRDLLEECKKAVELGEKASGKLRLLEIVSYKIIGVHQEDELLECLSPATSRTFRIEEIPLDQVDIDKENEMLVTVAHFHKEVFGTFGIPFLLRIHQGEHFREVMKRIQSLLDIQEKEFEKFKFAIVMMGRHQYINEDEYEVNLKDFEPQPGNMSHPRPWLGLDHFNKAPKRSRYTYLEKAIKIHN

What was measured:
[1] = biological target: endogenous DEPTOR of primary MM cells (human (endogenous in primary MM cells)) (UniProt Q8TB45); assay: co-IP; endogenous DEPTOR immunoprecipitated from isolated primary MM cells of two patients, blotted for associated USP-7
[2] = biological target: FLAG-tagged DEPTOR serine-to-aspartate (S-Asp) phosphomimetic mutant at residue 235 (human) (UniProt Q8TB45); assay: co-IP; anti-FLAG immunoprecipitation of FLAG-DEPTOR from 8226 or OPM-2 MM cells, immunoblot for USP-7; 4 h in the presence of MG-132, with or without drug 3g (1 uM) or PD98059
[3] = biological target: FLAG-tagged WT DEPTOR (Disheveled, Egl-10, and Pleckstrin domain-containing mechanistic target of rapamycin-interacting protein) (human) (UniProt Q8TB45); assay: as above

binding [1]: binds
binding [2]: binds
binding [3]: binds
Substance: ubiquitin-specific protease 7 (USP-7) deubiquitinase (from UniProt Q93009 1-1102) (enzyme)
